Laboratory results from the supplement of paper PMC10849652.
Some of the results follow.

Protein sequences, listed by entry. Tags and fused reporters are not part of them. Lines headed by an entry give the natural chain unless they say otherwise; changes in a name come on top.
UniProt Q9H8W3: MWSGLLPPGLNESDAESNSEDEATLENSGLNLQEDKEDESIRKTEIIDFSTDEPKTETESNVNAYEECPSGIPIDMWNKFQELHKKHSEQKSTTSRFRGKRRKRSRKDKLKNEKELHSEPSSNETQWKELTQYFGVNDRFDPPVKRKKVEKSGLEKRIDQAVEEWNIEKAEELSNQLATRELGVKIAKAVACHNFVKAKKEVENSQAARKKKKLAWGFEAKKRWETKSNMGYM
UniProt Q8N8J7: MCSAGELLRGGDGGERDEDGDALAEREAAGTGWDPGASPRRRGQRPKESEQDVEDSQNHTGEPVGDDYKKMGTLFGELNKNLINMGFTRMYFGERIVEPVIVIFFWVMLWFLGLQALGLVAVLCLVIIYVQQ
UniProt Q96ND0: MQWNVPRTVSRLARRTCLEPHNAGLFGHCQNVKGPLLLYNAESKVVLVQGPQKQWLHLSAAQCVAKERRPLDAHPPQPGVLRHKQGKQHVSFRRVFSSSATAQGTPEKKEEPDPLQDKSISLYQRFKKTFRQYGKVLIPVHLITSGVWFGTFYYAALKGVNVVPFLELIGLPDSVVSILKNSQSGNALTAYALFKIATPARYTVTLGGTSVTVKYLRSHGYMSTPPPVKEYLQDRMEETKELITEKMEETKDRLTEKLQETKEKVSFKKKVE
UniProt Q9UQ84: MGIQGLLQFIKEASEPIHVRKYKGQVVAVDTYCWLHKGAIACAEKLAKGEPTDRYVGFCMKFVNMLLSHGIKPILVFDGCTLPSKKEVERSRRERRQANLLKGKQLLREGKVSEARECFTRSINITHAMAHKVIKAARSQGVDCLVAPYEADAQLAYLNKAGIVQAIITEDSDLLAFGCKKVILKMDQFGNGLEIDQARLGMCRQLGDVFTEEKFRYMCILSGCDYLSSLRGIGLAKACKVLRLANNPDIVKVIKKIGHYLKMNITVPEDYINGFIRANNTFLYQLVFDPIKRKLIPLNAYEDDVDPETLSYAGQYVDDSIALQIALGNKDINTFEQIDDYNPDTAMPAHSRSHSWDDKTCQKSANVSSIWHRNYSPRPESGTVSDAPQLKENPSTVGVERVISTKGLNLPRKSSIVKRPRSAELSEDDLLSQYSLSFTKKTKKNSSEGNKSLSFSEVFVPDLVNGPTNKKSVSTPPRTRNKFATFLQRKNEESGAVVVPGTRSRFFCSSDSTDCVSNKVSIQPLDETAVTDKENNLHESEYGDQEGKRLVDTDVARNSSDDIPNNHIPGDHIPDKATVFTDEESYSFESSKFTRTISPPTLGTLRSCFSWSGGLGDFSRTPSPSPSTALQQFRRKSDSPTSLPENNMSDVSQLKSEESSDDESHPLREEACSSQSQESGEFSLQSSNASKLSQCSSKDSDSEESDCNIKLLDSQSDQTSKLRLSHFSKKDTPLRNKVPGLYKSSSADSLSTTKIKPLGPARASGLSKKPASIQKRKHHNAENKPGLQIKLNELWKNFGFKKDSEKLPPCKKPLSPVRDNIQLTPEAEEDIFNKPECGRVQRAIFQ
UniProt Q86X53: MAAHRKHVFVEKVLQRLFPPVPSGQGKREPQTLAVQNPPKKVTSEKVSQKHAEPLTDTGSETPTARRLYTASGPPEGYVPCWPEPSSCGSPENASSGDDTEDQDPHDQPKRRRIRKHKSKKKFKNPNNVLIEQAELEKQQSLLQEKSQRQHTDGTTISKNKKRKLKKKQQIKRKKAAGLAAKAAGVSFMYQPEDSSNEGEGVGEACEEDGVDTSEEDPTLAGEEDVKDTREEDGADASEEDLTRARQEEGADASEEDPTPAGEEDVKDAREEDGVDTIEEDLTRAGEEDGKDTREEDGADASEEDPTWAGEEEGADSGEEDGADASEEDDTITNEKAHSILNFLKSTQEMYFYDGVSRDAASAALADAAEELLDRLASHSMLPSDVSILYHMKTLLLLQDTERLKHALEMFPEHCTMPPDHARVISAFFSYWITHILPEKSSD
UniProt Q8WUF8: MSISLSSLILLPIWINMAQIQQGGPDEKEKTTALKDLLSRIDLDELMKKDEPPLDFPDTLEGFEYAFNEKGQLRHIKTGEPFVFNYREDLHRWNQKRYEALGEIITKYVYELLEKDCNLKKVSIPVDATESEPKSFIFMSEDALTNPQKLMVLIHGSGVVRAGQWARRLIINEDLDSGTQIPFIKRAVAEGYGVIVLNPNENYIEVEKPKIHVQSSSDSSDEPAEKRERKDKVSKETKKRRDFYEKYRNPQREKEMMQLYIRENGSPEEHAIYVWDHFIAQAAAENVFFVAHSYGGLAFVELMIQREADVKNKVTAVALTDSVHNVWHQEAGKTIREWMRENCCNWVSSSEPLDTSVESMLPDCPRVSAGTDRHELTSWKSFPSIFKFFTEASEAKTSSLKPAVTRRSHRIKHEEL
UniProt Q86V87: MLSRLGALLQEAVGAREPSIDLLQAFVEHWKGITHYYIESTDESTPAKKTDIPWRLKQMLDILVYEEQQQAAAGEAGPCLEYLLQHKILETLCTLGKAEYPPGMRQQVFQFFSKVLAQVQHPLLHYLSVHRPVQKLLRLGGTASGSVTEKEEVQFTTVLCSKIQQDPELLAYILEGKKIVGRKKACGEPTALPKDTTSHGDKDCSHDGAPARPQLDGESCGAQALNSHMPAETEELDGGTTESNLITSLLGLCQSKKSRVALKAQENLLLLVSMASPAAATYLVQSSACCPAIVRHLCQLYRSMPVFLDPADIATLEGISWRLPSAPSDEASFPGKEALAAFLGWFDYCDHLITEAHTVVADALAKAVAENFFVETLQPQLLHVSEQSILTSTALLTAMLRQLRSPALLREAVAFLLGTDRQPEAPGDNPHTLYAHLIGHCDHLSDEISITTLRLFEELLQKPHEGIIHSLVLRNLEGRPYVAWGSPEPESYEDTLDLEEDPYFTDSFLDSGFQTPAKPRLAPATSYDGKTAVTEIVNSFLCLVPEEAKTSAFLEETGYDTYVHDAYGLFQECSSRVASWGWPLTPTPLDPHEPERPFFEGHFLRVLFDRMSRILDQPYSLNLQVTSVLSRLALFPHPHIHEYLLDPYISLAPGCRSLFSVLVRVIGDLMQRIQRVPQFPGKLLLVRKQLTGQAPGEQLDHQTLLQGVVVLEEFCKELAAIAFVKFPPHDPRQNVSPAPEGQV
UniProt Q9H0Q0: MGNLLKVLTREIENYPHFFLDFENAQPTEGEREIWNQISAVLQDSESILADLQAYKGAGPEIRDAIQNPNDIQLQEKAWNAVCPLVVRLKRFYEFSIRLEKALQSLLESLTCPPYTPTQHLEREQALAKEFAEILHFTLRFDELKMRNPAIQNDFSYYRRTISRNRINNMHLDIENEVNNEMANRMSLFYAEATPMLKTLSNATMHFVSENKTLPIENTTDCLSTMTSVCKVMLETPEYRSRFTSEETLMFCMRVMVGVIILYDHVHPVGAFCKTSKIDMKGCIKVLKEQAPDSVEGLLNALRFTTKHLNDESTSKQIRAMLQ
UniProt Q5HYJ3: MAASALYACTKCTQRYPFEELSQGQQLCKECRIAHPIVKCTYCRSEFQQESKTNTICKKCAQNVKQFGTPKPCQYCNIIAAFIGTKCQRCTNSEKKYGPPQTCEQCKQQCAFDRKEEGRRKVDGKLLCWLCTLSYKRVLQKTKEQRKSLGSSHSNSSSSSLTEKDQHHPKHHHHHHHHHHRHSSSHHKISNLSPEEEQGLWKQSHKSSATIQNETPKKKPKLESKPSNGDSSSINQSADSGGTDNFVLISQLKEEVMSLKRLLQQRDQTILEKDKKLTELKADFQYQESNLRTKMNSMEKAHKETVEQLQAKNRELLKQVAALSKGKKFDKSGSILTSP
UniProt Q7Z309: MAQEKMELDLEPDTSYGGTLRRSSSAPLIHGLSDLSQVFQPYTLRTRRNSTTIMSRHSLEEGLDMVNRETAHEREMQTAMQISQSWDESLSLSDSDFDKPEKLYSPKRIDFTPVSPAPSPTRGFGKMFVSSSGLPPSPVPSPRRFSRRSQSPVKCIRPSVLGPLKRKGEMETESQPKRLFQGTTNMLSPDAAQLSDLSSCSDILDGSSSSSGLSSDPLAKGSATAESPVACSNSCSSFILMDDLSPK
UniProt O75063: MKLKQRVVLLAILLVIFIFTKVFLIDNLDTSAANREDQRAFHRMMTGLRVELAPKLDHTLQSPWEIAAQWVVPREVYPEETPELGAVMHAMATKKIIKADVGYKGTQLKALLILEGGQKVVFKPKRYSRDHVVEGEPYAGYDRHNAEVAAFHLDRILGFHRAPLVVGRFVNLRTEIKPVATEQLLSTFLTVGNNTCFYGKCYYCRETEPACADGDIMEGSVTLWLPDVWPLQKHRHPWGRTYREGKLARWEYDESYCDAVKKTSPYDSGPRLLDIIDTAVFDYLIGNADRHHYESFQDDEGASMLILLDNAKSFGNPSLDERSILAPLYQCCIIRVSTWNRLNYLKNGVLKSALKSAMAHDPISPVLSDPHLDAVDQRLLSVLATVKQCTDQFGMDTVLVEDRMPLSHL
UniProt Q14153: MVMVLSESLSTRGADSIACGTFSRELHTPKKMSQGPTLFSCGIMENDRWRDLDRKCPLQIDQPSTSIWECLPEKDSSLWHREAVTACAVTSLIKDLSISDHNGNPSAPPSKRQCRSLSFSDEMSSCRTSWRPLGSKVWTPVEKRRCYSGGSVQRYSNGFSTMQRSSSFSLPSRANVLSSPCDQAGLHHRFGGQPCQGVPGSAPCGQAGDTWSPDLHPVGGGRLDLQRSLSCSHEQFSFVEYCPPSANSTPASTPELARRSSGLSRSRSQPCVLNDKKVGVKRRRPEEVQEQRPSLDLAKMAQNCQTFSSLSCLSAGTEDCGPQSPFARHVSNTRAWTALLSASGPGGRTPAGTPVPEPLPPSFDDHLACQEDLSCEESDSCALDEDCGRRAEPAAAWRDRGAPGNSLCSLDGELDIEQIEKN
UniProt Q96HE7: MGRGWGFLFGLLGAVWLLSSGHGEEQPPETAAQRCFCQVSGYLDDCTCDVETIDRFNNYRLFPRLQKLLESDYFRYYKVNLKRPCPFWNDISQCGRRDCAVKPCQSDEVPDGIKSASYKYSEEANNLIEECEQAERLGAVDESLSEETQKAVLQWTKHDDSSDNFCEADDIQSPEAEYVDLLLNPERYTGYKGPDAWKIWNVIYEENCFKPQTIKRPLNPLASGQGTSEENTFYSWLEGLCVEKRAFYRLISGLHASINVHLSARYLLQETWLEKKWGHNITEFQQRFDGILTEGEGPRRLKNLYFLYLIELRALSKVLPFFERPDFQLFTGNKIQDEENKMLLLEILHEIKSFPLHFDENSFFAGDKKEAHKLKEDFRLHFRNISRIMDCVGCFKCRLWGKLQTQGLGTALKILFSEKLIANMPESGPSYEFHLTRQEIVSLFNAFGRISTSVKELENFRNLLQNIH
UniProt Q96RI0: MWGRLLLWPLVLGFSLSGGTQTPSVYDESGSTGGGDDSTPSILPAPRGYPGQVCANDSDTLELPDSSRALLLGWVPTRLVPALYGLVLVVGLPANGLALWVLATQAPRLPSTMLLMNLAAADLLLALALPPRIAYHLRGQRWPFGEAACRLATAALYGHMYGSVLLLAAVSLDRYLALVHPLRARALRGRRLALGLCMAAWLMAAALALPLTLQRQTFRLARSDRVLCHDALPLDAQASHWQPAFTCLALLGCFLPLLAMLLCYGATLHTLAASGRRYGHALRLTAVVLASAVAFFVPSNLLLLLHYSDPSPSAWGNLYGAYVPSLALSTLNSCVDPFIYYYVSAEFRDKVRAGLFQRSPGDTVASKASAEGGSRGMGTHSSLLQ
UniProt Q9H501: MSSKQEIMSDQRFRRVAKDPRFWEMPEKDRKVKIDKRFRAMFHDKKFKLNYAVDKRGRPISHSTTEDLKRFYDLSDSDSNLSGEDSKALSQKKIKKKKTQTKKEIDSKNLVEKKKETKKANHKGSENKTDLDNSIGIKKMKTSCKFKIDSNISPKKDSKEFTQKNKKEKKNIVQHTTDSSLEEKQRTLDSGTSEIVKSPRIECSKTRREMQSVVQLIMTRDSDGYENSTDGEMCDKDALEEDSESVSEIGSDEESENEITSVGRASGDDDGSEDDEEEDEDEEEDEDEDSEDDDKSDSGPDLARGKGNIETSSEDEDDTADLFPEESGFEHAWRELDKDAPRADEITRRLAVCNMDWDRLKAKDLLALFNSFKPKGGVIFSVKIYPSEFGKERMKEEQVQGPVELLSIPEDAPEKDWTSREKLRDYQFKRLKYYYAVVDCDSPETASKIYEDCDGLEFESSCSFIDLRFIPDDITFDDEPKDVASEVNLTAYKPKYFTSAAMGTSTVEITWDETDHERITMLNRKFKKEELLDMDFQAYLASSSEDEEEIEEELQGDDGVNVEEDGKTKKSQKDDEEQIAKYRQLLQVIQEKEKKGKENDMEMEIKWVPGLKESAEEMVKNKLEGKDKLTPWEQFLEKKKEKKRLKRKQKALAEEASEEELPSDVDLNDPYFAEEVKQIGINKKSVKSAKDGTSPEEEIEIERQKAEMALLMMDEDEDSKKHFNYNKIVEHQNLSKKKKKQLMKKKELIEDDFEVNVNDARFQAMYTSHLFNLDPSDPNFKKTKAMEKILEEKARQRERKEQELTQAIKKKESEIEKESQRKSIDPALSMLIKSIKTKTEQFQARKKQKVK

How the values were obtained:
Assay in all cases: log2 fold change, soluble protein after heating vs DMSO (PISA); higher = thermal stabilisation; K562 lysate, 10 uM; active = over 0.2 and 3.5 SD of the protein, either way, in both replicates (recomputed)
erlotinib = compound: C#Cc1cccc(Nc2ncnc3cc(OCCOC)c(OCCOC)cc23)c1 [erlotinib]
Summary of the method: (§1)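 Quantification was by TMTpro 16plex LC-MS/MS with equalised channel sums, applied to the supernatant after 21,000xg for 90 min. Samples were crude K562 extract at 1 mg/mL protein in PBS pH 7.4 with 1 mM MgCl2, treated with 10 μM compound for 30 min, heated for 3 min across 48°C-58°C, pooled and brought to 0.5% NP-40 at 4°C. Values are log-two fold changes in thermal stability relative to solvent controls, from duplicates.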

[1] = compound: C/C(=N\NC(=O)C1=CC(=CC=C1)S(=O)(=O)N2CCOCC2)/C3=C(C=CC(=C3)Cl)O
Summary of the method: as §1

[2] = compound: C1=CC(=CC=C1C2=NC3=C(N2)C=C(C=C3)C(=O)N)OC4=CC=C(C=C4)Cl
Summary of the method: as §1

[3] = compound: C1=CC2=C(C=CC(=C2)/C=C\3/C(=O)NC(=NCC4=CC=CS4)S3)N=C1
Summary of the method: as §1

[4] = compound: C1=CC=C(C=C1)C2=NC(=C(N2)C3=CC=NC=C3)C4=CC(=C(C=C4)Cl)O
Summary of the method: as §1

[5] = compound: C1=CC=C2C(=C1)C3=NNC4=CC=CC(=C43)C2=O
Summary of the method: as §1

IRAK-1-4 Inhibitor I = compound: C1COCCN1CCN2C3=CC=CC=C3N=C2NC(=O)C4=CC(=CC=C4)[N+](=O)[O-] [IRAK-1-4 Inhibitor I]
Summary of the method: as §1

ralimetinib = compound: CC(C)(C)Cn1c(N)nc2ccc(-c3[nH]c(C(C)(C)C)nc3-c3ccc(F)cc3)nc21 [ralimetinib]
Summary of the method: as §1

[6] = compound: CC(C)(O)CC(=O)NCCn1ccc2ncnc(Nc3ccc(Oc4cccc(C(F)(F)F)c4)c(Cl)c3)c21
Summary of the method: as §1

[7] = compound: CC(C)C1=C2N=C(C=C(N2N=C1)NCC3=CC=CC=C3)NCCCCCCN
Summary of the method: as §1

[8] = compound: CC1=C(C=C(C=C1)NC(=O)C2=CC(=CC=C2)C(C)(C)C#N)NC3=CC4=C(C=C3)N=CN(C4=O)C
Summary of the method: as §1

[9] = compound: CC1=C(C=C(C=C1)NC(=O)C2=CC(=CC=C2)N(C)C)NC(=O)C3=CC=C(C=C3)O
Summary of the method: as §1

[10] = compound: C1=CC2=NC=CN=C2C=C1/C=C/3\C(=O)NC(=O)S3
Summary of the method: as §1

[11] = compound: C1CCN(C1)C(=O)NC2=CC=CC(=C2)NC3=NC=C(C(=N3)NCCC4=CN=CN4)Br
Summary of the method: as §1

[12] = compound: C1CN(CCC1(CC2=CC=C(C=C2)Cl)N)C3=NC=NC4=C3C=CN4
Summary of the method: as §1

ibrutinib = compound: C=CC(=O)N1CCC[C@@H](n2nc(-c3ccc(Oc4ccccc4)cc3)c3c(N)ncnc32)C1 [ibrutinib]
Summary of the method: as §1

[13] = compound: CC(=O)c1cnc2ccc(-c3cc(Cl)c(O)c(Cl)c3)nc2c1N[C@H]1CC[C@H](CN(C)C)CC1
Summary of the method: as §1

[14] = compound: CC1=C(C2=C(C=C1)C(=O)C3=CC=CC=C3N2CCCN)C
Summary of the method: as §1

[15] = compound: CC1=CC=C(C=C1)SC2=C3C=C(SC3=CN=C2)C(=O)N
Summary of the method: as §1

[16] = compound: CC1=C(C(CC(=O)N1)C2=CC=C(C=C2)C(F)(F)F)C(=O)NC3=C(C=C4C(=C3)C=NN4)F
Summary of the method: as §1

Target	log2 fold change (erlotinib)	log2 fold change [1]	log2 fold change [2]	log2 fold change [3]	log2 fold change [4]	log2 fold change [5]	log2 fold change (IRAK-1-4 Inhibitor I)	log2 fold change (ralimetinib)	log2 fold change [6]	log2 fold change [7]	log2 fold change [8]	log2 fold change [9]	log2 fold change [10]	log2 fold change [11]	log2 fold change [12]	log2 fold change (ibrutinib)	log2 fold change [13]	log2 fold change [14]	log2 fold change [15]	log2 fold change [16]
FAM204A (UniProt Q9H8W3)	inactive: -0.021	inactive: -0.018	inactive: -0.014	inactive: 0.11	inactive: 0.018	inactive: -0.008	inactive: 0.01	inactive: -0.12	inactive: 0.061	inactive: -0.117	inactive: 0.174	inactive: -0.002								
FAM241A (UniProt Q8N8J7)	inactive: 0.019	inactive: 0.008	inactive: -0.032	inactive: -0.028	inactive: -0.073	inactive: -0.015	inactive: -0.015	inactive: 0.008	inactive: 0.023	inactive: 0.004	inactive: -0.029	inactive: 0.003	inactive: -0.057	inactive: 0.015	inactive: 0.052	inactive: 0.07	inactive: -0.046	inactive: 0.011	inactive: 0.009	
FAM210A (UniProt Q96ND0)	inactive: -0.016	inactive: -0.008	inactive: 0.028	inactive: 0.042	inactive: -0.113	inactive: -0.008	inactive: -0.011	inactive: 0.024	inactive: -0.007	inactive: -0.029	inactive: 0.02	inactive: -0.021	inactive: -0.016	inactive: 0.024	inactive: -0.018	inactive: 0.047	inactive: -0.012	inactive: -0.006	inactive: -0.026	inactive: 0.006
ESPL1 (UniProt Q14674)	inactive: 0.147	inactive: 0.019	inactive: 0.074	inactive: -0.086	inactive: -0.011	inactive: 0.054	inactive: -0.028	inactive: 0.002	inactive: 0.01	inactive: 0.04	inactive: -0.04	inactive: 0.076	inactive: 0.009	inactive: -0.025	inactive: 0.006	inactive: -0.076	inactive: -0.335	inactive: -0.036	active: -0.371	inactive: -0.005
FAM193A, A0A1B0GVL4	inactive: 0.089	inactive: 0.239	inactive: -0.015	inactive: 0.111		inactive: 0.052				inactive: 0.146	inactive: 0.05		inactive: 0.035	inactive: -0.065	inactive: -0.052	inactive: 0.157	inactive: 0.086		inactive: 0.06	inactive: 0.063
EXO1 (UniProt Q9UQ84)	inactive: 0.139	inactive: -0.059	inactive: -0.093	inactive: 0.026	inactive: 0.005	inactive: -0.279	inactive: 0.038	inactive: -0.049	inactive: -0.291	inactive: -0.114	inactive: -0.002	inactive: -0.01					inactive: 0.06		inactive: -0.045	inactive: 0.073
ERICH1 (UniProt Q86X53)	inactive: 0.094	inactive: -0.017	inactive: 0.125	inactive: -0.062	inactive: 0.011	inactive: -0.339	inactive: 0.084	inactive: 0.02	inactive: 0.022	inactive: 0.047	inactive: 0.012	inactive: -0.038	inactive: -0.254	inactive: 0.036	inactive: 0.054	inactive: 0.219	inactive: -0.026	inactive: -0.068	inactive: 0.001	inactive: 0.057
FAM172A (UniProt Q8WUF8)	inactive: -0.084	inactive: 0.034	inactive: 0.224	inactive: -0.035	inactive: 0.099	inactive: 0.008	inactive: 0.006	inactive: -0.039	inactive: -0.094	inactive: 0.156		inactive: 0.054	inactive: -0.319	inactive: 0.188	inactive: 0.112	inactive: 0.025	inactive: 0.017	inactive: -0.059	inactive: 0.031	inactive: -0.125
FAM160B2 (UniProt Q86V87)	inactive: 0.021	inactive: -0.007	inactive: -0.023	inactive: 0.127	inactive: -0.057	inactive: -0.012	inactive: -0.063	inactive: -0.094	inactive: 0.139	inactive: -0.221	inactive: 0	inactive: 0.145		inactive: -0.008	inactive: 0.068					inactive: 0.131
FAM49A (UniProt Q9H0Q0)	inactive: 0.046	inactive: 0.159	inactive: -0.041	inactive: -0.145	inactive: 0.133	inactive: 0	inactive: -0.064	inactive: -0.069	inactive: -0.032	inactive: -0.05	inactive: 0.04	inactive: 0.032	inactive: 0.069	inactive: 0.041	inactive: 0.087	inactive: 0.092	inactive: 0.089		inactive: 0.079	inactive: -0.078
FAM76B (UniProt Q5HYJ3)	inactive: -0.027	inactive: -0.35	inactive: -0.016	inactive: -0.137	inactive: -0.053	inactive: 0.046	inactive: -0.008	inactive: -0.005	inactive: -0.01	inactive: -0.06	inactive: 0.023	inactive: -0.002		inactive: -0.019	inactive: 0.061		inactive: -0.025	inactive: -0.02	inactive: -0.011	inactive: -0.012
FAM122B isoform 3 (UniProt Q7Z309)	inactive: 0.086	inactive: 0.01	inactive: -0.212	inactive: 0.039	inactive: -0.056	inactive: -0.09	inactive: 0.108	inactive: -0.05	inactive: -0.068	inactive: 0	inactive: 0.021	inactive: 0.013	inactive: -0.055	inactive: -0.239	inactive: -0.416	inactive: 0.082	inactive: -0.056	inactive: 0.154	inactive: 0.002	
FAM160A2 isoform 2 (UniProt Q8N612)	inactive: -0.021	inactive: -0.006	inactive: -0.023	inactive: -0.022		inactive: -0.062				inactive: -0.154	inactive: -0.006		inactive: -0.085	inactive: 0.051	inactive: 0.105	inactive: 0.075		inactive: -0.055		inactive: 0.137
FAM20B (UniProt O75063)	inactive: 0.021	inactive: 0.081	inactive: -0.039	inactive: -0.038	inactive: -0.035	inactive: -0.009	inactive: -0.028	inactive: -0.026	inactive: 0.009	inactive: -0.043	inactive: -0.031	inactive: -0.063	inactive: 0.016	inactive: -0.05	inactive: -0.001	inactive: 0.04	inactive: 0.021	inactive: -0.113	inactive: -0.046	inactive: 0.023
FAM53B (UniProt Q14153)	inactive: 0.057	inactive: -0.087	inactive: -0.03	inactive: 0.015	inactive: -0.047	inactive: -0.024	inactive: 0.203	inactive: -0.299	inactive: -0.084	inactive: 0.037	inactive: -0.07	inactive: -0.263	inactive: -0.004	inactive: -0.034	inactive: 0.006	inactive: 0.037		inactive: 0.161		inactive: 0.098
ERO1A (UniProt Q96HE7)	inactive: -0.016	inactive: -0.043	inactive: 0.032	inactive: -0.017	inactive: 0.008	inactive: -0.017	inactive: -0.015	inactive: 0.015	inactive: 0.007	inactive: -0.011	inactive: 0.01	inactive: 0.002	inactive: -0.007	inactive: 0	inactive: -0.032	inactive: 0.002	inactive: 0.003	inactive: 0	inactive: 0.001	inactive: -0.008
F2RL3 (UniProt Q96RI0)	inactive: -0.039	inactive: 0.003	inactive: 0.043	inactive: 0.059	inactive: 0.064	inactive: -0.102	inactive: 0.024	inactive: -0.03	inactive: -0.183	inactive: -0.092		inactive: -0.039					inactive: 0.019	inactive: 0.038	inactive: -0.097	inactive: 0.104
ESF1 (UniProt Q9H501)	inactive: -0.007	inactive: -0.094	inactive: -0.002	inactive: -0.01	inactive: 0.068	inactive: 0.04	inactive: -0.008	inactive: 0.003	inactive: 0.038	inactive: -0.007	inactive: 0.02	inactive: -0.029	inactive: -0.041	inactive: 0.025	inactive: 0.018	inactive: 0.043	inactive: -0.015	inactive: -0.028	inactive: 0.028	inactive: 0.01

2 neighbouring records from above, for reference:
Target	log2 fold change (erlotinib)	log2 fold change [1]	log2 fold change [2]	log2 fold change [3]	log2 fold change [4]	log2 fold change [5]	log2 fold change (IRAK-1-4 Inhibitor I)	log2 fold change (ralimetinib)	log2 fold change [6]	log2 fold change [7]	log2 fold change [8]	log2 fold change [9]	log2 fold change [10]	log2 fold change [11]	log2 fold change [12]	log2 fold change (ibrutinib)	log2 fold change [13]	log2 fold change [14]	log2 fold change [15]	log2 fold change [16]
FAM172A (UniProt Q8WUF8)	inactive: -0.084	inactive: 0.034	inactive: 0.224	inactive: -0.035	inactive: 0.099	inactive: 0.008	inactive: 0.006	inactive: -0.039	inactive: -0.094	inactive: 0.156		inactive: 0.054	inactive: -0.319	inactive: 0.188	inactive: 0.112	inactive: 0.025	inactive: 0.017	inactive: -0.059	inactive: 0.031	inactive: -0.125
FAM160B2 (UniProt Q86V87)	inactive: 0.021	inactive: -0.007	inactive: -0.023	inactive: 0.127	inactive: -0.057	inactive: -0.012	inactive: -0.063	inactive: -0.094	inactive: 0.139	inactive: -0.221	inactive: 0	inactive: 0.145		inactive: -0.008	inactive: 0.068					inactive: 0.131
